No constants are given. Whether binding was seen depends on the method and setting. Some binding calls cover weakened binding; strength is not graded here.

Sequences of proteins named here, by UniProt entry; tags and fusion partners are left off.
UniProt P0A988: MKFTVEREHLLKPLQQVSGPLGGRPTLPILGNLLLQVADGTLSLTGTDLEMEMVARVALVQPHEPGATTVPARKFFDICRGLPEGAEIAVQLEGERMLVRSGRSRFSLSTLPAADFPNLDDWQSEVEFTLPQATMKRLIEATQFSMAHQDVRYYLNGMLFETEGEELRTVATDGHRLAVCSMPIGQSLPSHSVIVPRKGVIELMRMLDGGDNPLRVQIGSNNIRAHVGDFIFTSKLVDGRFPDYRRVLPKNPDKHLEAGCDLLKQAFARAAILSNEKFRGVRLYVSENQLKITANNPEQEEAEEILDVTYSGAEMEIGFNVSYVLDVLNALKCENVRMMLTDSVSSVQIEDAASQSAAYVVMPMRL

For the assay, the target named is β-clamp protein from E. coli (E. coli) (UniProt P0A988). In words: microscale thermophoresis (MST). (In general: In MST a laser heats a spot of the sample, and binding alters the fluorescence response.)
Turning to MDRWLVPWKKKRKIRRRRRRRRRRR [… (SEQ ID NO: 1212)], the binding entry is “binds”.

Consider MDRFSLKWKKKRKIRRRRRRRRRRR [… (SEQ ID NO: 1209)], for which the binding entry was “binds”.

MDRWAVKWKKKRKIRRRRRRRRRRR [… (SEQ ID NO: 1204)]: the binding result is listed as “binds”.

MDRWLSKWKKKRKIRRRRRRRRRRR [… (SEQ ID NO: 1211)]: the binding entry is recorded as “binds”.

Consider MDRFLSKWKKKRKIRRRRRRRRRRR [… (SEQ ID NO: 1210)], for which the binding result is “binds”.

Regarding MDRWSVKWKKKRKIRRRRRRRRRRR [… (SEQ ID NO: 1203)], the binding entry is reported as “binds”.

As to MDRWLTKWKKKRKIRRRRRRRRRRR [… (SEQ ID NO: 1208)], the binding result is “binds”.
